PubChem BioAssay AID1259405 – NCATS – 2018
The whole screen tested about 50,000 reagents; below is a part drawn at random. Of all reagents, about 4,000 (8%) were called active. 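Mouse siRNA library applied to hamster cells; one well for each siRNA.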 Entries without a mark were called inactive. The numbers tell different reagents against one gene apart.

- Test: 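Silenced genes that increase secreted GFP made by CHO cells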 (primary screen)
- Cells: Chinese hamster CHO-K1 ovary cells with stable secreted eGFP expression
- Reagents: single siRNA against mouse genes, 0.8 pmol siRNA per well (2 µl of 400 nM stock)
- Timing: 3 days
- Detection: 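Percent of the per-plate non-targeting control median for intracellular GFP per well by laser scanning cytometry and for cell viability by ATP luminescence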
- Direction: GFP, % of control: higher = more GFP per well, higher productivity; viability (ATP), % of control: higher = more viable cells (more ATP)
- Active means: 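a knock-down is called active if GFP reaches 120% or more of non-targeting control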

gene symbol,reagent no.,"GFP, % of control","viability (ATP), % of control"
Aatk (GeneID 11302),1,92.8,34
Aatk (GeneID 11302),2,121 (active),88
Aatk (GeneID 11302),3,131 (active),91.7
Smad5 (GeneID 17129),1,67.6,71.1
Smad5 (GeneID 17129),2,75.5,70.2
Smad5 (GeneID 17129),3,72.1,89.9
Kcnip2 (GeneID 80906),1,70.9,87.7
Kcnip2 (GeneID 80906),2,88.5,52.2
Snapc4 (GeneID 227644),1,101,59.6
Snapc4 (GeneID 227644),2,75.5,72.9
Snapc4 (GeneID 227644),3,73.7,76.2
Vmn1r64 (GeneID 404285),1,23.4,19.3
Vmn1r64 (GeneID 404285),2,67,72
Vmn1r64 (GeneID 404285),3,79.4,77.7
Pcdhb5 (GeneID 93876),1,75,67.5
Pcdhb5 (GeneID 93876),2,91.1,79.1
Kctd13 (GeneID 233877),1,61.4,53.3
Kctd13 (GeneID 233877),2,103,84.8
Zfp282 (GeneID 101095),1,74.2,69.2
Zfp282 (GeneID 101095),2,95.5,82.2
Zfp282 (GeneID 101095),3,85.9,91.1
Adamts13 (GeneID 279028),1,120 (active),102
Adamts13 (GeneID 279028),2,71.1,54.5
Adamts13 (GeneID 279028),3,46.2,37.4
Fcrla (GeneID 98752),1,85.6,65.8
Fcrla (GeneID 98752),2,83,67.5
Fcrla (GeneID 98752),3,78.9,71.3
Ddx28 (GeneID 71986),1,110,70.9
Ddx28 (GeneID 71986),2,76.1,55
Ddx28 (GeneID 71986),3,92,82.3
Gm5111 (GeneID 330305),1,100,50.7
Gm5111 (GeneID 330305),2,36.5,42.2
Gm5111 (GeneID 330305),3,67.7,77.2
Lrrfip1 (GeneID 16978),1,58.2,104
Lrrfip1 (GeneID 16978),2,88.3,79.6
Lrrfip1 (GeneID 16978),3,84.1,91.2
Resp18 (GeneID 19711),1,31.7,68.5
Resp18 (GeneID 19711),2,73.6,70.8
Resp18 (GeneID 19711),3,74.4,81.8
A930104D05Rik (GeneID 320600),1,53.8,45.4
A930104D05Rik (GeneID 320600),2,34.2,22
A930104D05Rik (GeneID 320600),3,80.5,87.6
Zp3 (GeneID 22788),1,86.8,111
Zp3 (GeneID 22788),2,90.3,65.7
Zp3 (GeneID 22788),3,130 (active),99.4
Htr3b (GeneID 57014),1,113,111
Htr3b (GeneID 57014),2,123 (active),76.3
Htr3b (GeneID 57014),3,56.2,77.8
Zfp677 (GeneID 210503),1,87.5,95.7
Zfp677 (GeneID 210503),2,45.5,49.2
Zfp677 (GeneID 210503),3,120,120
Hivep1 (GeneID 110521),1,69.2,78.7
Hivep1 (GeneID 110521),2,45.9,35.7
Hivep1 (GeneID 110521),3,81.2,83
Hrh2 (GeneID 15466),1,74.4,59.1
Hrh2 (GeneID 15466),2,57.9,81.7
Hrh2 (GeneID 15466),3,71.4,85.6
Raf1 (GeneID 110157),1,67.6,66.8
Or8b3b (GeneID 258372),1,57.9,57.2
Or8b3b (GeneID 258372),2,44.5,28.4
Or8b3b (GeneID 258372),3,88.9,67.8
Ackr5 (GeneID 11536),1,74.9,90.8
Ackr5 (GeneID 11536),2,76.8,90.3
Ackr5 (GeneID 11536),3,58.2,63.8
9130230L23Rik (GeneID 231253),1,141 (active),101
9130230L23Rik (GeneID 231253),2,77.6,77
9130230L23Rik (GeneID 231253),3,117,105
Ly6g2 (GeneID 223631),1,96.6,90.8
Ly6g2 (GeneID 223631),2,77,68.9
Ly6g2 (GeneID 223631),3,160 (active),166
Got1l1 (GeneID 76615),1,67.6,61.6
Got1l1 (GeneID 76615),2,70.2,89.3
Got1l1 (GeneID 76615),3,38.3,63.8
Bhlhb9 (GeneID 70237),1,10.8,21.2
Bhlhb9 (GeneID 70237),2,81.4,78.8
Bhlhb9 (GeneID 70237),3,67.9,58.9
Gtpbp8 (GeneID 66067),1,93.7,70.8
Gtpbp8 (GeneID 66067),2,66.5,64.3
Gtpbp8 (GeneID 66067),3,85,45.5
Uchl4 (GeneID 93841),1,144 (active),90.1
Uchl4 (GeneID 93841),2,89.9,79
Uchl4 (GeneID 93841),3,74.8,90
Pprc1 (GeneID 226169),1,81.1,78.6
Pprc1 (GeneID 226169),2,171 (active),147

A few values from the entries so far:
Value of Zfp677 (GeneID 210503) #1 under “GFP, % of control”: 87.5
Value of Or8b3b (GeneID 258372) #2 under “GFP, % of control”: 44.5
Pcdhb5 (GeneID 93876) #1, viability (ATP), % of control → 67.5
Entry of Ddx28 (GeneID 71986) #3 under “GFP, % of control”: 92
For “viability (ATP), % of control”, Lrrfip1 (GeneID 16978) #2 shows 79.6
Entry of Lrrfip1 (GeneID 16978) #3 in “GFP, % of control”: 84.1
